We go through one sequence from PMC11051826, “Screening and Application of DNA Aptamers for Heparin-Binding Protein”.

This data set addresses T1, Heparin-binding protein (HBP) (Homo sapiens) (UniProt P20160).
T1 sequence (looked up, limits assumed): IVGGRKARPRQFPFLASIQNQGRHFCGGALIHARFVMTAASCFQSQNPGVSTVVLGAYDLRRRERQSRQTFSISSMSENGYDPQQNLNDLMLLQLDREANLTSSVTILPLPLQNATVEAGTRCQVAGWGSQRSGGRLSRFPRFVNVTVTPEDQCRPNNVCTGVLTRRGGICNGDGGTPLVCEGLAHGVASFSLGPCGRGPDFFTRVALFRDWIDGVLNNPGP
The data set is described as follows: strand displacement (PAGE, Exo III/RCA fluorescence). The conditions noted are these: HBP binds Apt-01(74) and releases C2-13; commercial protein.

Construct, isoform or probe ends are uncertain for at least one entry. At least one verdict was read from the data and is not stated in words by the source. Tags and fusion partners may be left off the protein sequences shown.

For the sequence “TTCAGCACTCCACGCATAGCTTCACCTACCGCAATCCGTTGCTCAGTGCTACCGCACCTATGCGTGCTACCGTG / CTTCACGGTAGCACGC [Apt-01(74)/C2-13]”, the binding result is reported as “binds”.
